Measured values reported in patent publication US20250250358A1.
These are yes or no findings as the source states them, for the method shown. Some binding calls cover weakened binding; strength is not graded here. Sequences can lack the tags named with a protein.

Sequences of proteins named here, by UniProt entry; tags and fusion partners are left off. Residues count along the entry.
UniProt Q6UXX9, residues 22-243: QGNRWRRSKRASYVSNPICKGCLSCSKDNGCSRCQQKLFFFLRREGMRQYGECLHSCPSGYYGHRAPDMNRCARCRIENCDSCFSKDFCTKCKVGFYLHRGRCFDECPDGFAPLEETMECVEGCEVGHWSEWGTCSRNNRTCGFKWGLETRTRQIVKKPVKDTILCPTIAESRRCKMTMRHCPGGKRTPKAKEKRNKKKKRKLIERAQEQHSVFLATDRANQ

Key:
[1] = target: T1, RNF43 (Extracellular domain)-Fc fusion (UniProt Q68DV7); test: BLI, RNF43-Fc tips loaded first with R0 or R3
T1 sequence (biotinylated (site not stated), looked up): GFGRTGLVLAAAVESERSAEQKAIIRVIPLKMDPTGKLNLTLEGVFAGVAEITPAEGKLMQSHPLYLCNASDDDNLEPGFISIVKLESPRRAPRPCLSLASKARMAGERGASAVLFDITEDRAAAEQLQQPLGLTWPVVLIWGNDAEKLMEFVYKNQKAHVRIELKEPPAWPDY

[2] = target: T1, RNF43 (Extracellular domain)-Fc fusion; test: BLI, RNF43-Fc tips loaded first with 50 nM R0 Fab or 50 nM R3 Fab, then 100 nM RSPO2 (together with 50 nM of the Fab)

For “R-spondin 2 (from UniProt Q6UXX9 22-243) (ligand)”, the binding [1] was “binds” and the binding [2] was “binds”.
